Measurements reported in PubChem BioAssay AID1159578 (Peter MacCallum Cancer Centre, 2015).
In all, the deposit lists about 18,000 reagents; shown is an unselected part. Of all reagents, about 1,030 (5.7%) are marked active. 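Inactive calls also include pools with fewer than 3300 nuclei, whose migration was not assessed.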 Raw values vary from plate to plate and are shown uncorrected. Reagent sequences are not shown.

Aim: 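Knock-downs that alter how fast lymphatic endothelial cells migrate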 (primary screen)
System: human lymphatic endothelial cells
Reagents: siRNA pool against human genes, 40 nM
Timing: 48 h after transfection
Measurement: 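High-content imaging of dye-stained cells in a scratch assay measures filled wound area and nuclei per well; duplicate means given as ratio to mock and robust z-score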
Reading the numbers: migration robust z-score: higher = faster migration into the scratch; migration relative to mock: higher = more scratch area covered than mock; nuclei per well: higher = more cells in the well
Active means: 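Pools averaging fewer than 3300 nuclei are never called; remaining pools count as changed when migration robust z lies outside -2 to 2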
Calls: active = migration changed; inactive = no migration change, or too few cells

no.	gene	PubChem SID	migration robust z-score	migration class with cell-count check	migration relative to mock	nuclei per well, duplicate mean	Call
1	NAGLU	SID255351136	-0.96	migration z between -2 and 2; enough cells	0.62	5767	inactive
2	EVI2A	SID255349578	-1.42	migration z between -2 and 2; enough cells	0.51	5576	inactive
3	ZNF385C	SID255364067	-1.06	migration z between -2 and 2; enough cells	0.61	5499	inactive
4	C5orf34	SID255365372	-1.36	migration z between -2 and 2; enough cells	0.53	6452	inactive
5	USP15	SID255354698	0.16	migration z between -2 and 2; enough cells	0.84	5184	inactive
6	CD300C	SID255355404	-1.79	migration z between -2 and 2; enough cells	0.46	5340	inactive
7	ZC3H7A	SID255357114	0.05	migration z between -2 and 2; enough cells	0.9	6020	inactive
8	KCNE2	SID255354725	-1.09	migration z between -2 and 2; enough cells	0.6	4521	inactive
9	ATP2B3	SID255348455	1.12	migration z between -2 and 2; enough cells	1.02	6391	inactive
10	RNF125	SID255358289	0.6	migration z between -2 and 2; enough cells	0.92	5842	inactive
11	SLC12A3	SID255352486	-0.18	migration z between -2 and 2; enough cells	0.84	6483	inactive
12	MAP3K14	SID255353969	-0.76	migration z between -2 and 2; enough cells	0.66	4815	inactive
13	PLCD3	SID255362172	0.32	migration z between -2 and 2; enough cells	0.86	6034	inactive
14	ZNF441	SID255362680	-0.52	migration z between -2 and 2; enough cells	0.75	6076	inactive
15	CCDC28B	SID255360228	0.02	migration z between -2 and 2; enough cells	0.89	6400	inactive
16	METRN	SID255360157	0.22	migration z between -2 and 2; enough cells	0.94	6204	inactive
17	IRS4	SID255353577	-1.38	migration z between -2 and 2; enough cells	0.52	5745	inactive
18	QRFPR	SID255361201	0.24	migration z between -2 and 2; enough cells	0.85	6314	inactive
19	PCDHA9	SID255354526	-1.29	migration z between -2 and 2; enough cells	0.55	5668	inactive
20	EPHA10	SID255364805	-0.83	migration z between -2 and 2; enough cells	0.64	4687	inactive
21	MAPK3	SID255351812	-1.58	under 3300 nuclei; migration not judged	0.5	2746	inactive
22	HCRT	SID255350160	-0.62	migration z between -2 and 2; enough cells	0.72	6042	inactive
23	OR52B6	SID255365109	-0.69	migration z between -2 and 2; enough cells	0.71	5392	inactive
24	AOPEP	SID255361568	1.22	migration z between -2 and 2; enough cells	1.04	5854	inactive
25	FBLN1	SID255349629	1.36	migration z between -2 and 2; enough cells	1.24	6578	inactive
26	FAM24A	SID255362451	2.97	migration z above 2; enough cells	1.65	6636	active
27	CTAGE15	SID255365938	-0.32	migration z between -2 and 2; enough cells	0.8	5745	inactive
28	SLC30A7	SID255363397	0.1	migration z between -2 and 2; enough cells	0.91	7448	inactive
29	NPVF	SID255359836	-0.78	migration z between -2 and 2; enough cells	0.68	6571	inactive
30	SERPINA10	SID255357523	-0.88	migration z between -2 and 2; enough cells	0.64	4622	inactive
31	IL37	SID255356963	-0.44	migration z between -2 and 2; enough cells	0.78	5634	inactive
32	SLC5A2	SID255352455	0.76	migration z between -2 and 2; enough cells	0.95	6504	inactive
33	YY2	SID255365841	1.46	migration z between -2 and 2; enough cells	1.27	5918	inactive
34	RSU1	SID255352249	-0.28	migration z between -2 and 2; enough cells	0.82	4976	inactive
35	GK5	SID255364523	-1.82	migration z between -2 and 2; enough cells	0.45	5792	inactive
36	TMEM184C	SID255358830	-0.3	migration z between -2 and 2; enough cells	0.81	5527	inactive

Entries listed so far whose gene name begins with S or s:
gene	PubChem SID	migration robust z-score	migration class with cell-count check	migration relative to mock	nuclei per well, duplicate mean	Call
SLC12A3	SID255352486	-0.18	migration z between -2 and 2; enough cells	0.84	6483	inactive
SLC30A7	SID255363397	0.1	migration z between -2 and 2; enough cells	0.91	7448	inactive
SERPINA10	SID255357523	-0.88	migration z between -2 and 2; enough cells	0.64	4622	inactive
SLC5A2	SID255352455	0.76	migration z between -2 and 2; enough cells	0.95	6504	inactive

The results go on.
no.	gene	PubChem SID	migration robust z-score	migration class with cell-count check	migration relative to mock	nuclei per well, duplicate mean	Call
37	CFAP74	SID255361702	0.05	migration z between -2 and 2; enough cells	0.9	4375	inactive
38	CFAP74	SID255365040	-1.38	migration z between -2 and 2; enough cells	0.52	6484	inactive
39	CDH24	SID255359917	1.36	migration z between -2 and 2; enough cells	1.24	6110	inactive
40	LIFR	SID255350757	1.14	migration z between -2 and 2; enough cells	1.02	6663	inactive
41	DUX5	SID255356823	-0.4	migration z between -2 and 2; enough cells	0.78	4138	inactive
42	PSME4	SID255356064	0.68	migration z between -2 and 2; enough cells	1.06	7699	inactive
43	VANGL2	SID255359344	-0.74	migration z between -2 and 2; enough cells	0.69	5186	inactive
44	ADRA1B	SID255348209	-0.46	migration z between -2 and 2; enough cells	0.72	6132	inactive
45	NUP188	SID255356287	-0.39	migration z between -2 and 2; enough cells	0.78	5832	inactive
46	TTLL10	SID255364447	-0.28	migration z between -2 and 2; enough cells	0.82	5218	inactive
47	AP3B1	SID255353637	-1.45	migration z between -2 and 2; enough cells	0.52	4750	inactive
48	POLK	SID255357709	-0.96	migration z between -2 and 2; enough cells	0.62	3384	inactive
49	TMEM117	SID255361244	1.59	migration z between -2 and 2; enough cells	1.29	5660	inactive
50	SRP68	SID255352630	1.13	migration z between -2 and 2; enough cells	1.17	5790	inactive
51	PSMB3	SID255351885	-0.42	migration z between -2 and 2; enough cells	0.72	4840	inactive
52	NUPR1	SID255356782	-1.77	migration z between -2 and 2; enough cells	0.42	6730	inactive
53	COX8C	SID255365129	-0.8	migration z between -2 and 2; enough cells	0.65	4778	inactive
54	LRRC73	SID255364297	-0.14	migration z between -2 and 2; enough cells	0.85	3886	inactive
55	ZNF697	SID255361872	1.04	migration z between -2 and 2; enough cells	1.15	4838	inactive
56	TIMD4	SID255361965	0.38	migration z between -2 and 2; enough cells	0.98	5300	inactive
57	SPANXN5	SID255366012	0.59	migration z between -2 and 2; enough cells	1.04	6784	inactive
